For eleven molecules, binding results are on record in EP4353258A1.

Results are given in words; binding and its absence hold for the method and conditions named. Binding can be weak; no strength is given.

One assay concerns the target CD206. Put plainly: conclusion from flow cytometry and ELISA of Example 4.
Assay [1] deals with CD206 expressed on HEK293T cells (co-expressed with Venus) (Mus musculus (Mouse)). Put plainly: flow cytometry, APC-labelled antibody on HEK293T cells expressing CD206 and Venus. On the technique in general: Flow cytometry measures light scatter and fluorescence of single cells or particles in a stream.

B1: anti-CD206 antibody (No. 40) (antibody, V domains shown)
VH: QVQLQQSGAELVRPGTSVKVSCKASGYAFTNYLIEWVKQRPGQGLEWIGVINPGSGGTNYNEKFKGKATLTADKSSSTAYMQLSSLTSEDSAVYFCARDYGSTFDYWGQGTTLTVSS
VL: DIVLTQSPATLSVTPGDSVSLSCRASQSISSNLHWYQQKSHESPRLLINFASQSISGIPSRFSGSGSGTDFTLNINTVETEDFGMYFCQQSNSWPLTFGAGTKLELK
Consider B1, for which the binding entry in the assay with CD206 is “binds”.

B2: anti-CD206 antibody (No. 35) (antibody, V domains shown)
VH: QVQLQQPGAELVKPGASVKVSCKASGYTFTTYWMHWVKQRPGQGLEWIGRIHPSDSDSNYNQKFKGKATLTVDKSSSTAYMQLSSLTSEDSAVYYCAIGRGFAYWGQGTLVTVSA
VL: DIVLTQSPASLAVSLGQRAAISCRASESVDNYGNSFMHWYQQKPGQPPKLLIYRASNLESGIPARFSGSGSRTDFTLTINPVEADDVATYYCQQGNEDPYTFGGGTKLEIK
With B2, the binding result (in the assay with CD206; in assay [1]) was “binds” throughout.

B3: anti-CD206 antibody (No. 27) (antibody, V domains shown)
VH: QVQLQQPGAELVKPRASVKLSCRASGYIFISYWMQWVKQRPGQGLEWIGEIDPSDSYINYNQKFKGKASLTVDTSSNTAYMQLSSLTSEDSAVYYCATGDMGDDFYAMDYWGQGTSVTVSS
VL: DIVMNQDELSNPVTSGESVSISCRSSKSLLYKDGKTYLNWFLQRPGQSPQLLIYLMSTRASGVSDRFSGSGSGTDFTLEISRVKAEDVGVYYCQQLVEYPFTFGGGTKLEIK
As for B3, the binding entry (with CD206; in assay [1]) was “binds” each time.

B4: anti-CD206 antibody (No. 54) (antibody, V domains shown)
VH: EVQLVESGGGLVQPKGSLKLSCAASGFSFNTYTMNWVRQAPGKGLEWVARIRSKSNNYETYYADSVKDRFTISRDDSESMLYLQMNNLKTEDTAMYYCVSPDSDSWFAYWGQGTLVTVSA
VL: DIQMNQSPSSLSASLGDTITIACHASQNINVWLSWYQQKPGNIPKLLIYKASNLHTGVPSRFSGSGSGTGFTLTISSLQPEDIATYYCQQGQSYPLTFGGGTKLEIK
Turning to B4, the binding result (with CD206; in assay [1]) was “binds” in each case.

B5: anti-CD206 antibody (No. 83) (antibody, V domains shown)
VH: QVQLLQSGAELVRPGTAVKMSCKASEYTFTNYWIGWARQRPGHGLEWIGDIYPGGGYINYNEKFKGKATLTADKSSSTVYMQFSSLTSEDSAIYYCARGGSNYVGHFDYWGQGTTLTVSS
VL: DIQMTQTTSSLSASLGDRVTISCRASQDISNYLNWYQQKPDGTVKLLIYYTSILHSRVPSRFSGSGSGTDYSLTISNLEQEDIATYFCQHGHTLPWTFGGGTKLEIK
With B5, the binding entry (with CD206; in assay [1]) was “binds” in each case.

B6: anti-CD206 antibody (No. 59) (antibody, V domains shown)
VH: QVQLQQPGAELVKPGASVKMSCKASGYTFSTYWITWVKQRPGQGLEWIGDIYPGGDSTNYNEKFKSKATLTEDTSSSTVYMQLSSLTSEHSAVYYCARGITGGYFDYWGQGTTLTVSS
VL: DIQMTQTTSSLSASLGDRVTITCRASQDISNYLNWYQRKPDGTVRLLIYYTSGLHSGVPSRFSGSGSGTDYSLTISNLEQEDFATYFCQQGHTLPWTFGGGTNLEIK
On to B6, for which the binding result with CD206 is “binds”.

B7: anti-CD206 antibody (No. 44) (antibody, V domains shown)
VH: QVQLQQSGAELVRPGTSVKVSCKASGYAFTDYLIEWVKQRPGQGLEWIGVINPGRGGTNYNEKFKGKATLTADKSSSTAYMQLSSLTSEDSAVYFCARYYGRSFGYFDVWGTGTTVTVSS
VL: DIQMTQSPASQSASLGESVTITCLASQTIGTWLAWYQQKPGKSPQLLIYAATSLADGVPSRFSGSGSGTKFSFKISSLQAEDFVSYYCQQLYSPPLTFGAGTKLELK
As to B7, the binding result (in the assay with CD206; in assay [1]) was “binds” throughout.

B8: anti-CD206 antibody (No. 10) (antibody, V domains shown)
VH: QVQLQQPGAELVRPGSSVKLSCKASGYTFISYWMDWVKQRPGQGLEWIGNIFPSDSETHYNQKFRDKATLTVDKSSSTASIHLSSLTSEDSAVYYCGRRDSSGWIDYWGQGTTLTVSS
VL: DIQMTQTTSSLSASLGDRVTISCRASQDISNYLNWYQQKPDGTVKLLIYYTSRFHSGVPSRFSGSGSGTDYSLTIHNVEQEDIATYFCQQSSMLPFTFGSGTKLEMK
In the case of B8, the binding result (with CD206; in assay [1]) was “binds” each time.

B9: anti-CD206 antibody (No. 47) (antibody, V domains shown)
VH: QVQLQQPGAELVRPGSSVKLSCKASGYTFTSYWMDWVKQRPGQGLEWIGNIYPSDSETHYNQKFKDRATLTVDKSSTTAYMQLSSLTSEDSAVYYCTRRDSSGWIDYWGQGTTLTVSS
VL: DIQMTQTTSSLSASLGDRVTISCRASQDISNYLNWYQQKPDGTVKLLIYYTSRLHSGVPSRFSGRGSGTDYSLTISNLEQEDIATYFCQQGNTLPFTFGSGTQLEIK
On to B9, for which the binding result (with CD206; in assay [1]) was “binds” throughout.

B10: anti-CD206 antibody (No. 73) (antibody, V domains shown)
VH: QVQLKQSGAELVKPGASVKISCKASGYTFTDYYINWVKQRPGQGLEWIGKIGPGSGSTYYNEKFKGKATLTADKSSSTAYMQLSSLTSEDSAVYFCARIGSSFFDYWGQGTTLTVSS
VL: DIKMTQSPSSMYASLGERVTITCKASQDINSYLSWFQQKPGKSPKTLIYRANRLVDGVPSRFSGSGSGQDYSLTISSLEYEDMGIYYCLQYDEFPLTFGAGTKLELK
As to B10, the binding entry in the assay with CD206 is “binds”.

B11: anti-CD206 antibody (No. 72) (antibody, V domains shown)
VH: QVQLQQPGAELVRPGSSVKLSCKASGYTFTTYWMHWVKQRPIQGLEWIGNIDPSDSETHYNQKFKDKATLTVDKSSSTAYMQLNSLTSEDSAVYYCARGDGYYVYFAYWGQGTTLTVSS
VL: EIVLTQSPALMAASPGEKVTITCSVSSSISSSNLHWYQQKSETSPKPWIYATSNLASGVPVRFSGSGSGTSYSLTISSMAAEDAATYFCQQWSSFPLTFGAGTKLELK
Consider B11, for which the binding result (with CD206; in assay [1]) was “binds” in each case.
